Laboratory results published in PMC4992025, “A Colorimetric Microplate Assay for DNA-Binding Activity of His-Tagged MutS Protein” (Molecular Biotechnology, 2016).
For at least one entry, the source does not settle the construct or the ends of the probe. Weaker means in comparison with the reference protein, sequence or condition of that experiment. At least one verdict was read from the data and is not stated in words by the source. For some assays here: Protein sequences can lack the tags named with them.

Protein sequences, listed by entry. Tags and fused reporters are not part of them. Lines headed by an entry give the natural chain unless they say otherwise; changes in a name come on top.
UniProt P23909: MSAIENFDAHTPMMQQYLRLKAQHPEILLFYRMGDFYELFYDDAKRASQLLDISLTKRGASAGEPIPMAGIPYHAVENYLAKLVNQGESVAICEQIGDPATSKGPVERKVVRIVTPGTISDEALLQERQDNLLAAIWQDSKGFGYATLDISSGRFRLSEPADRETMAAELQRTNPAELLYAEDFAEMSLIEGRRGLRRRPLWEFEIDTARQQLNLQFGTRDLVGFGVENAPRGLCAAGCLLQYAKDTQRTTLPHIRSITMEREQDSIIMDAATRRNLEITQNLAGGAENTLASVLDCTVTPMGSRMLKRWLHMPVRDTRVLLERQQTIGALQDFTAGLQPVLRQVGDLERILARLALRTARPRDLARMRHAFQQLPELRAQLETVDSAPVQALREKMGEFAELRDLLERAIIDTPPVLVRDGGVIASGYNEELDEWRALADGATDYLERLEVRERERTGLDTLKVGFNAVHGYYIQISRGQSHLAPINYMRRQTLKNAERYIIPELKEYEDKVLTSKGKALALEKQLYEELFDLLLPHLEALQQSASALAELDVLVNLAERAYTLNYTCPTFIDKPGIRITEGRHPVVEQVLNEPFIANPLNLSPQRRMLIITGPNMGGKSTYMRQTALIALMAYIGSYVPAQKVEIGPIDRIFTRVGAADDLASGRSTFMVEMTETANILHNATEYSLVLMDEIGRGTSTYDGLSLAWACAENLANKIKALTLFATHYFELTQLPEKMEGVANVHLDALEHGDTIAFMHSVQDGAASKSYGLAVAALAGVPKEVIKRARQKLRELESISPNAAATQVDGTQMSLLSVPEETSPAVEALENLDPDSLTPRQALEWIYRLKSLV

Experiments:
Assay in all cases: Ni-plate colorimetric binding assay
[1] = test system: DrMutS (Deinococcus radiodurans); conditions: 5 mM Mg2+, 1x PBS (150 mM salt) or 2x PBS (300 mM salt, with or without 1 mM ADP), 1% Tween-20, 5 mM MgCl2, room temperature, 1 ug His-MutS per well, 10 pmol DNA in 100 ul (0.1 uM), recombinant protein, protein details: N-terminal His tag, label: 5'-biotin on strand 1 (T49)
[2] = biological target: EcMutS (Escherichia coli) (UniProt P23909); conditions: 5 mM Mg2+, no ADP, 1x PBS (150 mM salt) or 2x PBS (300 mM salt, with or without 1 mM ADP), 1% Tween-20, 5 mM MgCl2, room temperature, 1 ug His-MutS per well, 10 pmol DNA in 100 ul (0.1 uM), recombinant protein, protein details: N-terminal His tag, label: 5'-biotin on strand 1 (T49)
[3] = biological target: T1, TthMutS (Thermus thermophilus) (UniProt Q56239); conditions: 5 mM Mg2+, 1x PBS (150 mM salt) or 2x PBS (300 mM salt, with or without 1 mM ADP), 1% Tween-20, 5 mM MgCl2, room temperature, 1 ug His-MutS per well, 10 pmol DNA in 100 ul (0.1 uM), recombinant protein, protein details: N-terminal His tag, label: 5'-biotin on strand 1 (T49)
T1 sequence (looked up, limits assumed): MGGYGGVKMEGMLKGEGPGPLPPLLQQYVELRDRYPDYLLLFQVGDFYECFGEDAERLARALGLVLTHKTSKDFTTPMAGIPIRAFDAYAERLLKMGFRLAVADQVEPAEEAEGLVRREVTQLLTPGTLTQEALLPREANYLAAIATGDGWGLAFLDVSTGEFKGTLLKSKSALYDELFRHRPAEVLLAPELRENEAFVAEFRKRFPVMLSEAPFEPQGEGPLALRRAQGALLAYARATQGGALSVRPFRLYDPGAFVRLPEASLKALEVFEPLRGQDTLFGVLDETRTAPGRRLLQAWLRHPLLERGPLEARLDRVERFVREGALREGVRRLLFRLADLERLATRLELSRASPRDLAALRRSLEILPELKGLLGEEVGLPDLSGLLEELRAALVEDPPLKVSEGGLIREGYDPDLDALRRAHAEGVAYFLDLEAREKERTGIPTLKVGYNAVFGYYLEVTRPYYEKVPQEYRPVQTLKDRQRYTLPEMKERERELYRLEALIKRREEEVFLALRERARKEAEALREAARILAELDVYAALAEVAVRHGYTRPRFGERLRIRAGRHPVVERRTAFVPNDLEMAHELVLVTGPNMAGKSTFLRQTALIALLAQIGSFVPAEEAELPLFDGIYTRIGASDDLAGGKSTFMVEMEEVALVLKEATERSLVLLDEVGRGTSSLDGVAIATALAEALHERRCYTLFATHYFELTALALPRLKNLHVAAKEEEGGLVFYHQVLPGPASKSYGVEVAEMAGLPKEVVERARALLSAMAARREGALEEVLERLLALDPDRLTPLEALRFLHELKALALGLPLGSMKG

Measured: binding result

ACAGATCCACTGTGCGACGAGCTGTGCCGCACGGTGATCGCAGCCGCTG (double strand) [TA49 (T49/A49, fully complementary)]
binds more weakly: [1]; 150 mM salt, no ADP | [1]; 300 mM salt, 1 mM ADP | [1]; 300 mM salt, no ADP | [2]; 300 mM salt | [3]; 300 mM salt, 1 mM ADP | [3]; 300 mM salt, no ADP

ACAGATCCACTGTGCGACGAGCTGTGCCGCACGGTGATCGCAGCCGCTG / CAGCGGCTGCGATCACCGTGCGGCGCAGCTCGTCGCACAGTGGATCTGT [TG49 (T49/G49, T:G mismatch)]
binds: [1]; 150 mM salt, no ADP | [1]; 300 mM salt, 1 mM ADP | [1]; 300 mM salt, no ADP | [2]; 150 mM salt | [2]; 300 mM salt | [3]; 150 mM salt, no ADP | [3]; 300 mM salt, 1 mM ADP | [3]; 300 mM salt, no ADP
